In article doi:10.1101/2021.04.11.439330:
Where two headings read alike, the source gives them in different places. These are yes or no findings as the source states them, for the method shown. For some of these results: In cells and extracts the contact can be indirect. Some binding calls cover weakened binding; strength is not graded here. For some of these results: Tags and fused reporters may be left off the sequences shown.

Amino acid sequences for entries named in this document (tags omitted). A change or cut given only in a name is not applied to a line headed by its entry. Chains listed by the source or under a name are the forms on record and can include a tag or linker. Residues count along the entry.
EphA2 receptor tyrosine kinase, wild type (P29317, residues 24-537): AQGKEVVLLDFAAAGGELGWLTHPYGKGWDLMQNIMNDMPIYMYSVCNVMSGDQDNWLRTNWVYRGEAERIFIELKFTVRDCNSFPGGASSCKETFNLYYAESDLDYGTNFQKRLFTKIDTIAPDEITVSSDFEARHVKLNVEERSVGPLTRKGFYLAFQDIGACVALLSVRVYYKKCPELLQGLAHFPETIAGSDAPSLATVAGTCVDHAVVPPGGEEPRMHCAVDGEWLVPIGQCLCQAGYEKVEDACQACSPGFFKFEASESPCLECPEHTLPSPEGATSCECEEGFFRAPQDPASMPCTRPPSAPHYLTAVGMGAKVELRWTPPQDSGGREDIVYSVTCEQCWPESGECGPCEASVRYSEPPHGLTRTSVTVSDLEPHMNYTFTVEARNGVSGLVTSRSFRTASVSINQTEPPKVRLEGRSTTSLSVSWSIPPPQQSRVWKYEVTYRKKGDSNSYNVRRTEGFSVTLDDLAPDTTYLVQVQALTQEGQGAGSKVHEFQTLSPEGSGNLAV
EphA2 D129N/G131S (LBD-LBD interface mutant) (P29317, form named): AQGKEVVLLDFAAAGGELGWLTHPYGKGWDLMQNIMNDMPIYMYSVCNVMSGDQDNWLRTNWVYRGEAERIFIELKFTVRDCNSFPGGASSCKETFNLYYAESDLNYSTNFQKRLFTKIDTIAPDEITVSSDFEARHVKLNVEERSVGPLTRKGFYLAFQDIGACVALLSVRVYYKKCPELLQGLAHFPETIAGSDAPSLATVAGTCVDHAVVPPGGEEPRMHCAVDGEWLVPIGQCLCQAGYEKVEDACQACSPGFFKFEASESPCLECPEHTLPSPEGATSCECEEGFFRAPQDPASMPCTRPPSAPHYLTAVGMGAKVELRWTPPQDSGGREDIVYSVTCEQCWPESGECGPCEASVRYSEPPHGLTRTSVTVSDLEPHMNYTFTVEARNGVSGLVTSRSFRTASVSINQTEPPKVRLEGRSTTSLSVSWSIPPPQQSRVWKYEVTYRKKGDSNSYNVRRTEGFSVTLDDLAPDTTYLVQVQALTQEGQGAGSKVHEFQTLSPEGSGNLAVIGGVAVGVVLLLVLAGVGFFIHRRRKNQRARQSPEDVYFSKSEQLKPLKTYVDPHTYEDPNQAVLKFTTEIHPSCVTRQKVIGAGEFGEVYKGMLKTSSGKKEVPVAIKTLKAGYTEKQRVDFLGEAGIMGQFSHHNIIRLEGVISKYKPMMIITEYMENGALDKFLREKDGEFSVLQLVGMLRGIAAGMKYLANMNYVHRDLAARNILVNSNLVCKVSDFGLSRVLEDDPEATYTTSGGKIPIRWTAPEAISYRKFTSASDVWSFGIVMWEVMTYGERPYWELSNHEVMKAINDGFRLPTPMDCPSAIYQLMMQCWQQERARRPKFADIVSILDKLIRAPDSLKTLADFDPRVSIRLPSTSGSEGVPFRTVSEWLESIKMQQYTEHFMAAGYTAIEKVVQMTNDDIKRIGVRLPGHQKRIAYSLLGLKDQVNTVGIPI
EphA2 L223R/L254R/V255R (Sushi-Sushi interface mutant) (P29317, form named): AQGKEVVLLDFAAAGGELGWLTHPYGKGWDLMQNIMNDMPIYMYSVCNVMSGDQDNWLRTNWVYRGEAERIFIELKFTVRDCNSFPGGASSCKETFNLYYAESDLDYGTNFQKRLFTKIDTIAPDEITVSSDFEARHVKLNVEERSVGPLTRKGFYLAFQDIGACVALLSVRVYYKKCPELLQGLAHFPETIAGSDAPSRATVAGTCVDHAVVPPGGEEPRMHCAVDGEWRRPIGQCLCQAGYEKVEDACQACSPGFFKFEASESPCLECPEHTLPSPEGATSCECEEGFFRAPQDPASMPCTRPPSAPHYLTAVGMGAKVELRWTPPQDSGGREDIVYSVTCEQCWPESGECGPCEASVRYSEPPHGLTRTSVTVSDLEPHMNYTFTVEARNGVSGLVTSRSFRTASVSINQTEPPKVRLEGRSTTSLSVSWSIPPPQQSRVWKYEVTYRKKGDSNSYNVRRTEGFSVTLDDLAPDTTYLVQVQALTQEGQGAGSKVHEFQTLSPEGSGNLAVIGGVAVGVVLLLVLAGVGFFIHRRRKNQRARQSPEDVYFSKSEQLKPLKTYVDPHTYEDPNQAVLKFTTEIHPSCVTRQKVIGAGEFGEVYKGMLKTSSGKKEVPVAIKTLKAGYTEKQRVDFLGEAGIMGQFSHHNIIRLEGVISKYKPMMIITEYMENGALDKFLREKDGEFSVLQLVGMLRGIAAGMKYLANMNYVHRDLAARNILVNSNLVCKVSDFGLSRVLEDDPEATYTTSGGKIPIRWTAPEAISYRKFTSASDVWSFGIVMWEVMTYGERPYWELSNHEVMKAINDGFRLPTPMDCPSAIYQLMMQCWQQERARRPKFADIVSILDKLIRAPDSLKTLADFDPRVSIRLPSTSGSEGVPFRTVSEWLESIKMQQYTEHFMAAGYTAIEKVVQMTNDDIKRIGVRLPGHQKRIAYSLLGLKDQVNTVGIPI
EphA2 LS compound mutant (LBD and Sushi interfaces disrupted) (P29317, form named): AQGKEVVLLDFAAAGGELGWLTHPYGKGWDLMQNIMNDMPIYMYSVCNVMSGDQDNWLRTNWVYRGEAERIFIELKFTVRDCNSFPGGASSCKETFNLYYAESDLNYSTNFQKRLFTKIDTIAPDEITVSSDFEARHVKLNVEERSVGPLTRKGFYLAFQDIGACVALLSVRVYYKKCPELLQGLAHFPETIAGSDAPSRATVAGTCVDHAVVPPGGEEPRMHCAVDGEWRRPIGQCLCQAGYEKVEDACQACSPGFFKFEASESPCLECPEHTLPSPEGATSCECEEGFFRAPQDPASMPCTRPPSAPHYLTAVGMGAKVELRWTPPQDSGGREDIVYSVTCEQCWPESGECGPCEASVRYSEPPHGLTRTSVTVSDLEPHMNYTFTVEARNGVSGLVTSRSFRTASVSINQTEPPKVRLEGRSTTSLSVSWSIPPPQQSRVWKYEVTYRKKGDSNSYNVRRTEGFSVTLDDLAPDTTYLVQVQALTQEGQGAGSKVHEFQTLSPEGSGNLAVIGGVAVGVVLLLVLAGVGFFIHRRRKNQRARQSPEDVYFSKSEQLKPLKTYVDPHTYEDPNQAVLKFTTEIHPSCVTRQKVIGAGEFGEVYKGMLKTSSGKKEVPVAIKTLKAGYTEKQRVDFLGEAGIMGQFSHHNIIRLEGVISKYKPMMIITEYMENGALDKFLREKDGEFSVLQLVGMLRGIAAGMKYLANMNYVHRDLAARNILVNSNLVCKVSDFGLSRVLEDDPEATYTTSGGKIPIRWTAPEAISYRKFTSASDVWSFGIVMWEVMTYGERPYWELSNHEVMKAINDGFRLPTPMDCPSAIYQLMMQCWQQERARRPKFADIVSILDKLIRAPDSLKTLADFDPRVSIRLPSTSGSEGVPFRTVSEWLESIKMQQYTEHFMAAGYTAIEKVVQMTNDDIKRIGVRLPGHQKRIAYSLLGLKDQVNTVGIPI
EphA2 N483L/R485E (LBD-FN2 interface mutant) (P29317, form named): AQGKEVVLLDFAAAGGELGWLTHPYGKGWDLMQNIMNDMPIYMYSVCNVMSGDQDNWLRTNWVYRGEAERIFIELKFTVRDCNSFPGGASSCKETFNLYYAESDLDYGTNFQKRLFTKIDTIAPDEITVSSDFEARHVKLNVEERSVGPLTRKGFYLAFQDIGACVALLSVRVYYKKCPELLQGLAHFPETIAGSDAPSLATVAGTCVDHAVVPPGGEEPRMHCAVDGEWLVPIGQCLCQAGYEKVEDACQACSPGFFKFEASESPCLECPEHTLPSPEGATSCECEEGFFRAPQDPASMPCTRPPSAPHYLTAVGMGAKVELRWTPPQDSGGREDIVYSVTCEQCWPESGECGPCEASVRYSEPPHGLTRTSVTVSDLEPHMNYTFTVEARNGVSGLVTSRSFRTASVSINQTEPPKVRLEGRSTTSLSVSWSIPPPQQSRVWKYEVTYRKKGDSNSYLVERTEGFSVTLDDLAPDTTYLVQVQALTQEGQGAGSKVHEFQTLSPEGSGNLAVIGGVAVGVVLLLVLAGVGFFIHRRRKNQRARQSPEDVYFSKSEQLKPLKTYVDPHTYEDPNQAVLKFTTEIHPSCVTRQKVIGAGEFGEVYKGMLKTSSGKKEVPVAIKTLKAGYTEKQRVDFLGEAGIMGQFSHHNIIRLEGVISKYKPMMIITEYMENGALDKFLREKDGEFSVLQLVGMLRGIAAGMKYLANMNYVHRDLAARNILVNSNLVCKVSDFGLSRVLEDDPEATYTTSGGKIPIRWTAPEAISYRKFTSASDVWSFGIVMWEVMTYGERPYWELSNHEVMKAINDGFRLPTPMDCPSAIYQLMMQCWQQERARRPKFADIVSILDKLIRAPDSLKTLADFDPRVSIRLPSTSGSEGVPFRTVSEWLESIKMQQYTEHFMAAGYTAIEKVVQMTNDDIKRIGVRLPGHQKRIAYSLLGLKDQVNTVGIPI
EphA2 P378E (FN1-FN1 interface mutant) (P29317, form named): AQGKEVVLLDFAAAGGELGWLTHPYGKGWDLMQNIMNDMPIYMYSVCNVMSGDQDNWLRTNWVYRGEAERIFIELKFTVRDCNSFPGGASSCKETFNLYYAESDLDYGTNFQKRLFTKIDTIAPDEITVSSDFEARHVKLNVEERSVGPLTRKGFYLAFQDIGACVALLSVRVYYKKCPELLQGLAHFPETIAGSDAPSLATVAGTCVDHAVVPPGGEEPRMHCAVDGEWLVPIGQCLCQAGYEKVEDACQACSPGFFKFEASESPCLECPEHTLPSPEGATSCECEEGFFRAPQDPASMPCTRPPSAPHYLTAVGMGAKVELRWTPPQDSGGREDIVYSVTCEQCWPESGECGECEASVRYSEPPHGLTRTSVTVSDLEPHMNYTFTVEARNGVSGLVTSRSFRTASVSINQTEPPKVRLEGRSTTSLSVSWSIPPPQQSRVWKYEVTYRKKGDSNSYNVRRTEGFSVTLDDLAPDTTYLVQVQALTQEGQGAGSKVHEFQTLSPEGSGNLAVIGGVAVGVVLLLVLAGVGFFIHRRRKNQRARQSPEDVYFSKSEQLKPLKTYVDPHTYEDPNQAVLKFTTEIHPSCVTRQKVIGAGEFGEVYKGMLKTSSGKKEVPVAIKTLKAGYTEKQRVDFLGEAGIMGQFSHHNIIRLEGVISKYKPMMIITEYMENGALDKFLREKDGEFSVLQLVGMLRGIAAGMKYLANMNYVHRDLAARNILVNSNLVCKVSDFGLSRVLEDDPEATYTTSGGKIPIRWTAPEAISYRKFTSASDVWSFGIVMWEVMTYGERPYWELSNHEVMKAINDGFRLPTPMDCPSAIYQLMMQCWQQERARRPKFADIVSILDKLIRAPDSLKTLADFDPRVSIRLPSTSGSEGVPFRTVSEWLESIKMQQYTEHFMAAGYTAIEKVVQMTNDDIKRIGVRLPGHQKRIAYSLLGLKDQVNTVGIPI

Assays:
[1] = molecular target: EphA2 D129N/G131S (LBD-LBD interface mutant) (UniProt P29317); assay: PIE-FCCS
[2] = molecular target: EphA2 D129N/G131S (LBD-LBD interface mutant) (UniProt P29317); assay: PIE-FCCS; remark: listed apart in the source
[3] = molecular target: EphA2 L223R/L254R/V255R (Sushi-Sushi interface mutant) (UniProt P29317); assay: PIE-FCCS
[4] = molecular target: EphA2 LS compound mutant (LBD and Sushi interfaces disrupted) (UniProt P29317); assay: PIE-FCCS
[5] = molecular target: EphA2 N483L/R485E (LBD-FN2 interface mutant) (UniProt P29317); assay: FRET or BRET
[6] = molecular target: EphA2 N483L/R485E (LBD-FN2 interface mutant) (UniProt P29317); assay: FRET or BRET; remark: listed apart in the source
[7] = molecular target: EphA2 N483L/R485E (LBD-FN2 interface mutant) (UniProt P29317); assay: PIE-FCCS
[8] = molecular target: EphA2 P378E (FN1-FN1 interface mutant) (UniProt P29317); assay: PIE-FCCS
[9] = molecular target: EphA2 receptor tyrosine kinase, wild type (UniProt P29317); assay: FRET or BRET
[10] = molecular target: EphA2 receptor tyrosine kinase, wild type (UniProt P29317); assay: PIE-FCCS
[11] = molecular target: EphA2 receptor tyrosine kinase, wild type (UniProt P29317); assay: PIE-FCCS; remark: listed apart in the source
[12] = molecular target: EphA2 receptor tyrosine kinase, wild type (UniProt P29317); assay: PIE-FCCS; remark: listed apart in the source
[13] = molecular target: EphA2 receptor tyrosine kinase, wild type (UniProt P29317); assay: PIE-FCCS; remark: listed apart in the source
[14] = molecular target: EphA2 receptor tyrosine kinase, wild type (UniProt P29317); assay: PIE-FCCS; remark: listed apart in the source
[15] = molecular target: T1, ephrin-A1 on the cell surface, GFP or mCherry inserted after the signal sequence, P20827; assay: PIE-FCCS; details: remark: other sources report otherwise
T1 chain: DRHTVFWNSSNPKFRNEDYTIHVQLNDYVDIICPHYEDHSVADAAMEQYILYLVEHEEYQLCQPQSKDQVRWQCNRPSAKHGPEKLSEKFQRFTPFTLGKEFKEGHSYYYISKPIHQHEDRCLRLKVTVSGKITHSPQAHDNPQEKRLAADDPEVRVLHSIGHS

“EphA2 D129N/G131S (LBD-LBD interface mutant) (from UniProt P29317 24-976) (receptor)” was tested, and the binding [1] was “binds” and the binding [2] was “binds”.

In the case of “EphA2 L223R/L254R/V255R (Sushi-Sushi interface mutant) (from UniProt P29317 24-976) (receptor)”, the binding [3] is reported as “binds”.

“EphA2 LS compound mutant (LBD and Sushi interfaces disrupted) (from UniProt P29317 24-976) (receptor)” was tested, and the binding [4] was “binds”.

For “EphA2 N483L/R485E (LBD-FN2 interface mutant) (from UniProt P29317 24-976) (receptor)”, the binding [5] was “binds”, the binding [6] was “binds” and the binding [7] was “binds”.

With “EphA2 P378E (FN1-FN1 interface mutant) (from UniProt P29317 24-976) (receptor)” the binding [8] was “binds”.

In the case of “EphA2 receptor tyrosine kinase, wild type (from UniProt P29317)”, the binding [9] is reported as “binds”, the binding [10] is reported as “binds” and the binding [11] is reported as “binds”. For the same molecule, the binding [12] was “binds”, the binding [13] was “binds” and the binding [14] was “binds”.

For “monomeric ephrin-A1 (from UniProt P20827 19-182) (ligand)”, the binding [4] was “binds”.

B1: ephrin-A1 on the cell surface, GFP or mCherry inserted after the signal sequence, P20827 19-182 (ligand)
chain: T1 chain
For B1, the binding [15] was “no binding”.
